In paper PMC6469404:
Results are given in words; binding and its absence hold for the method and conditions named. Binding seen in cells or lysates may run through a third protein. Some results given as binding are weak or reduced against the parent protein; the word gives no strength. Where a sequence is shown, tags or fusion partners need not be part of it.

By UniProt entry, the sequences of proteins in these tests, tags left out.
UniProt Q01590: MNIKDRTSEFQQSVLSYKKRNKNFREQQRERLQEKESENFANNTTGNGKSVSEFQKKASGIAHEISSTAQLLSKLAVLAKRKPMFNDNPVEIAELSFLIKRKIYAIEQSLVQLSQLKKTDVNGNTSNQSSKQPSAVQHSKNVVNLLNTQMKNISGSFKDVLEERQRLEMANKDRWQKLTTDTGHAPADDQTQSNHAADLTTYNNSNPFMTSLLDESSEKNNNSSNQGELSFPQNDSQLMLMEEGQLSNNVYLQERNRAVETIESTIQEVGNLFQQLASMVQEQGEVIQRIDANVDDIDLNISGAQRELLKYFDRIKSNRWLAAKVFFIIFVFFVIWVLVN
UniProt P39926: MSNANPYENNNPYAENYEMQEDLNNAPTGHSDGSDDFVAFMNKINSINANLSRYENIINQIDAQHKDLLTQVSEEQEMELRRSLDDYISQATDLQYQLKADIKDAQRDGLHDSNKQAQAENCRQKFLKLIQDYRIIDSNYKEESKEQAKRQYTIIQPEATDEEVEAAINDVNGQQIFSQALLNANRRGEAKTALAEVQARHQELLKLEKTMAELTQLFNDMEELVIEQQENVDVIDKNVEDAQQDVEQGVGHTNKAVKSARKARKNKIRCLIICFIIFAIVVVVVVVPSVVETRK

Legend:
Experiment in all cases: pull-down; calmodulin affinity purification coupled to western blot (AP-WB): TAP-tagged interactor as bait on calmodulin sepharose beads, galactose-induced Wsc1-HA as prey, yeast lysate in CaM-IPLB with 1% Triton X-100, 2 hr at 4°
Sed5-TAP (S. cerevisiae) = Sed5-TAP (S. cerevisiae) (UniProt Q01590)
Mac1-TAP (S. cerevisiae) = biological target: T1, Mac1-TAP (S. cerevisiae) (UniProt P35192)
T1 sequence: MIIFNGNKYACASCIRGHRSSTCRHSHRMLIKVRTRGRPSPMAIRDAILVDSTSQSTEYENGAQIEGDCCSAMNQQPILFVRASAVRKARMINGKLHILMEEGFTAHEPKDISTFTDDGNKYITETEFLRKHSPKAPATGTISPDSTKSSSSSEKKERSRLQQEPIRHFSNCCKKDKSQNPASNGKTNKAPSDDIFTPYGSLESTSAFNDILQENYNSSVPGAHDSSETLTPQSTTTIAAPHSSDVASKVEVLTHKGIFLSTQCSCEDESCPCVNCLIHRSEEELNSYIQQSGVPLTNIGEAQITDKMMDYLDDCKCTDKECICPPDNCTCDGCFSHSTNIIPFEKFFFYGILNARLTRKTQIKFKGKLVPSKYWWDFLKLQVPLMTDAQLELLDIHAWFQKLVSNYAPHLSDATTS

[1] = biological target: T2, Tom70-TAP (S. cerevisiae) (UniProt P07213)
T2 sequence: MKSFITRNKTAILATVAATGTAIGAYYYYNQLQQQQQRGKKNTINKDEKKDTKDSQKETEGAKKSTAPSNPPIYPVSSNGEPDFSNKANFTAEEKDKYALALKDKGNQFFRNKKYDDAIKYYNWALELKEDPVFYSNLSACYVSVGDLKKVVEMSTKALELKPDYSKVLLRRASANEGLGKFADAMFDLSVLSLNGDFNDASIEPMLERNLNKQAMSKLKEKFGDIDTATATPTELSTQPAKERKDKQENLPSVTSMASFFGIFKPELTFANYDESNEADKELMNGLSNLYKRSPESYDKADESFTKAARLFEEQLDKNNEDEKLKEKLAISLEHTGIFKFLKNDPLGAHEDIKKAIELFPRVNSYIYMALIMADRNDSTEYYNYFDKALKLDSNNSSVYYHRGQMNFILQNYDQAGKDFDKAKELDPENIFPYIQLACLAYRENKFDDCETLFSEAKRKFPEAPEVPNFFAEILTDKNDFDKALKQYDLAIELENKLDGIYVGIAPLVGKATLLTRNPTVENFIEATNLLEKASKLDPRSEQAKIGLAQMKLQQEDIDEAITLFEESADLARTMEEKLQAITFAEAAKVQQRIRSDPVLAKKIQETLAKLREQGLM

[2] = biological target: Sso2p, TAP-tagged bait (S. cerevisiae) (UniProt P39926)
[3] = biological target: T3, Msh6p, TAP-tagged bait (S. cerevisiae) (UniProt Q03834)
T3 sequence: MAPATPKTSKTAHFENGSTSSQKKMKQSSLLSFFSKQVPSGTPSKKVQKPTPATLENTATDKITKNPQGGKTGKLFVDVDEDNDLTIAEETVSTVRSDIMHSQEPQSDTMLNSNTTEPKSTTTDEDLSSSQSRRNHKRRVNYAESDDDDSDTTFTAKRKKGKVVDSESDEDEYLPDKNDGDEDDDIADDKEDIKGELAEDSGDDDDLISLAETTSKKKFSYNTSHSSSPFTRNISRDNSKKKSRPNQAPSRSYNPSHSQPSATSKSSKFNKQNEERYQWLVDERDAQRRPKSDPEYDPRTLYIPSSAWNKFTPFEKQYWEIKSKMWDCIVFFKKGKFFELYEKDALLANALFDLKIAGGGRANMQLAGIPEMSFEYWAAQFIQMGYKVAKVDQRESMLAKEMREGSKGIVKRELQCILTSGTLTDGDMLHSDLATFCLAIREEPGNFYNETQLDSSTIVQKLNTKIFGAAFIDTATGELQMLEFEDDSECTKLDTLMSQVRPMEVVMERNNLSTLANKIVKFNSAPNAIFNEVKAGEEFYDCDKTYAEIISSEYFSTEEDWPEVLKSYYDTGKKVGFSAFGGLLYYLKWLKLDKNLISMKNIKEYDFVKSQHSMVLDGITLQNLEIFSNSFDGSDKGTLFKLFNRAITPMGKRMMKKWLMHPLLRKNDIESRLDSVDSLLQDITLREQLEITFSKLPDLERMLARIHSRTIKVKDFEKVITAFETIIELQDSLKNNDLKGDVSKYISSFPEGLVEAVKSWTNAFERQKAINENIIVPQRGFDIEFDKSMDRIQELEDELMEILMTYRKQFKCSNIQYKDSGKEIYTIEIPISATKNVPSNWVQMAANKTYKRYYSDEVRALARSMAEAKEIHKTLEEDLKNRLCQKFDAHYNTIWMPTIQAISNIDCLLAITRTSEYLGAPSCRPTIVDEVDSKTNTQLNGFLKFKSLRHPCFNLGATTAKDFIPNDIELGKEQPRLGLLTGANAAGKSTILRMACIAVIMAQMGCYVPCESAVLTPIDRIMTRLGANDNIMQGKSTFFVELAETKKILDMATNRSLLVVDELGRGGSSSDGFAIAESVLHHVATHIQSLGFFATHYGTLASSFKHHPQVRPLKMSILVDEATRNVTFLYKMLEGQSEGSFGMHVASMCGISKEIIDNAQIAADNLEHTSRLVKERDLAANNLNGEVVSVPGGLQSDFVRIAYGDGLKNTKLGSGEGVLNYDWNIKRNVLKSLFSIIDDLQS

binding (Sed5-TAP (S. cerevisiae)): no binding
binding (Mac1-TAP (S. cerevisiae)): no binding
binding [1]: binds weakly
binding [2]: binds
binding [3]: binds
B1: Wsc1-HA (protein, UniProt P54867 22-378)
chain: YEYVNCFSSLPSDFSKADSYNWQSSSHCNSECSAKGASYFALYNHSECYCGDTNPSGSESTSSSCNTYCFGYSSEMCGGEDAYSVYQLDSDTNSNSISSSDSSTESTSASSSTTSSTTSSTTSTTSSTTSSTTSSMASSSTVQNSPESTQAAASISTSQSSSTVTSESSLTSDTLATSSTSSQSQDATSIIYSTTFHTEGGSTIFVTNTITASAQNSGSATGTAGSDSTSGSKTHKKKANVGAIVGGVVGGVVGAVAIALCILLIVRHINMKREQDRMEKEYQEAIKPVEYPDKLYASSFSSNHGPSSGSFEEEHTKGQTDINPFDDSRRISNGTFINGGPGGKNNVLTVVNPDEAD
